# Primary screen of a compound library

The chains behind the UniProt entries cited, without tags or fusion partners.
UniProt E9BF75, entry or part of it: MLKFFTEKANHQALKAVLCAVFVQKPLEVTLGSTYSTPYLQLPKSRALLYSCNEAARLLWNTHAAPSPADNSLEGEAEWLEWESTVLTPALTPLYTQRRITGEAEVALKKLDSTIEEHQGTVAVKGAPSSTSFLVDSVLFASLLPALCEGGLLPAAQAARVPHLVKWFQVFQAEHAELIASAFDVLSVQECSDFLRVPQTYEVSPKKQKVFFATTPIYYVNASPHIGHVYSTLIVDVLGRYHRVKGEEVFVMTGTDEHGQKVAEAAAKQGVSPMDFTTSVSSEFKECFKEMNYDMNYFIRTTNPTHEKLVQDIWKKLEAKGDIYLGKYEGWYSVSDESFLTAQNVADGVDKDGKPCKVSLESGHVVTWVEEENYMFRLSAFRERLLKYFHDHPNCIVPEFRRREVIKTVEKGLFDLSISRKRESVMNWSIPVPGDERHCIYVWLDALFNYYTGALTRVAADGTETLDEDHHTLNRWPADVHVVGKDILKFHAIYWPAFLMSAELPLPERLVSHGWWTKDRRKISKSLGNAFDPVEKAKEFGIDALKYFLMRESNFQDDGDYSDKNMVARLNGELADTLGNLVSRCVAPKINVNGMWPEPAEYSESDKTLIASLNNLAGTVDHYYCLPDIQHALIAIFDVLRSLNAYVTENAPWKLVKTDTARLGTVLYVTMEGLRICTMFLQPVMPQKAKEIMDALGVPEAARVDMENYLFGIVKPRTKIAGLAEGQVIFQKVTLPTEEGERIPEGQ

Source: ChEMBL document CHEMBL3988442, “University of Dundee, Small-Polar-MMV Screening Library” (2021).

Results are percentages, as filed. The record does not define 0% and 100%; most values in the screen are far below 50% and negative numbers occur (in some assays of this library far below -100). This is an unselected part of the compounds tested. A dash means the value is not listed here; it may have been measured.

Mtb heat-shock: 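Assay on Mycobacterium tuberculosis, filed only as a heat shock assay from Cornell; the read-out is not stated. The concentration is filed as 10 mM, unlikely as a test dose, so the dose is not known. The record gives no direction; compounds that gave an IC50 in retests scored well above the rest, so higher reads as stronger inhibition. Size under these conditions: about 69,000 compounds, about 930 of them at 50% or above in at least one test.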
LdMetRS: 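Primary screen of methionyl-tRNA synthetase; the read-out is not stated. Target: Methionyl-tRNA synthetase (putative), Leishmania donovani (UniProt E9BF75). The test concentration is not given. Values are per cent inhibition. Of about 68,000 compounds tested this way, about 24 (0.035%) reached 50% or more in at least one test.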
Mtb growth Cornell: 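Whole-cell assay for inhibitors of Mycobacterium tuberculosis growth, labelled Cornell in the record; the read-out is not stated. The concentration is filed as 10 mM, unlikely as a test dose, so the dose is not known. The record gives no direction; compounds strong in two other growth screens of this library score well above the rest, so higher reads as stronger inhibition. Of about 53,000 compounds tested this way, about 900 (1.7%) reached 50% or more in at least one test.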

| SMILES | Mtb heat-shock | LdMetRS | Mtb growth Cornell |
|---|---|---|---|
| `O=C(CCC1CCCO1)NCCc1ccccn1` (stereo not given) | -1.77% | 13.03% | 23.14% |
| `Cn1cc(CNc2cnn(CC3CCCO3)c2)c(-c2ccncc2)n1` (stereo not given) | -16.24% | 6.425% | 2.334% |
| `Cc1nc(-c2noc3ccc(C(=O)NCCN4CCOCC4)cc23)co1` | -6.663% | 9.424% | 5.677% |
| `O=C1CC(c2ccc3ccccc3n2)c2c(n[nH]c2C2CCC2)N1` (stereo not given) | -9% | 4.673% | -10.3% |
| `CCc1nc(CCn2ccc3nc(OC)c(C#N)cc3c2=O)no1` | 9.465% | 10.57% | 9.636% |
| `Cl.[H][C@@]12OCCC[C@]1([H])NC[C@@H]2NC(=O)c1cscn1` | -23.5% | - | 3.457% |
| `COc1ccc(CNCCc2cccc(C(N)=O)c2)cc1O` | -4.984% | 12.09% | -4.906% |
| `COc1cccc(CNC(=O)c2ccccc2-n2cc(CN)cn2)c1` | -12.31% | 9.709% | -18.22% |
| `O=C(C1CCN(c2snc3ccccc23)CC1)N1CCCCCC1` | 17.25% | 8.333% | - |
| `COCC(=O)N1CCCn2c(CN3CCCC3)nnc2C1` | -6.048% | 9.816% | 16.51% |
| `CC(=O)NCCCC(=O)NC(C)c1nnc2n1CCC2` (stereo not given) | 9.582% | 14.77% | - |
| `O=C(O)C(F)(F)F.[H][C@@]12OCCN(C(=O)c3ccccc3C)[C@@]1([H])CC[C@H]2OCCN(C)C` | -14.05% | - | - |
| `O=C(O)C(F)(F)F.[H][C@@]12CC(=O)N(CCN(C)C)[C@@]1([H])CCN2S(=O)(=O)c1ccccc1` | -3.73% | - | - |
| `OCc1nnn2c1CN(Cc1cccnc1)CCC2` | 1.181% | -6.587% | 9.678% |
| `O=C(NCC(F)F)N1CCC(n2ccc(C(F)(F)F)n2)CC1` | 15.51% | 6.404% | 3.209% |
| `CCCS(=O)(=O)N1CCC(NC(=O)c2ccc(Cl)s2)CC1` | 27.48% | 14.63% | 25.93% |
| `Cc1ccc(C(=O)O)cc1S(=O)(=O)N(CC(C)O)c1ccccc1` (stereo not given) | 26.25% | 15.14% | 17.11% |
| `c1cncc(CN2CCC(c3csc4nccn34)CC2)c1` | -3.136% | 17.45% | 15.05% |
| `CNCc1cn(C2CCN(C(=O)NCc3ccco3)CC2)nn1` | 9.102% | 13.68% | 17.14% |
| `Cc1nc(CCNCc2c(C)nn(C)c2N2CCOCC2)cs1` | 17.4% | 10.93% | - |
| `CCCc1nccn1CCn1cnc2ccsc2c1=O` | -23.83% | 6.425% | -1.676% |
| `O=C(NCC1Cn2nnc(-c3ccncc3)c2CO1)c1ccsc1` (stereo not given) | - | 4.762% | - |
| `Cc1cnc2c(S(=O)(=O)NCC3CC3)cccc2c1` | -27.79% | 14.29% | 7.216% |
| `CC(C)N1CCOC(CC(=O)N2CCCN(Cc3ccncc3)CC2)C1` (stereo not given) | 7.203% | 5.483% | - |
| `CCCN(CCc1ccccn1)C(=O)Cn1cnnn1` | -25.25% | 14.24% | -11.59% |
| `CCn1cnnc1C1CCN(C(=O)c2ccc(OC(C)C)nc2)CC1` | -2.156% | 10.14% | 22.89% |
| `COCCNC(=O)NCCCOC1CCCc2ccccc21` (stereo not given) | 6.122% | 15.22% | 4.577% |
| `Cc1ccc(CNC(CCO)C2CCCCC2)nc1` (stereo not given) | -12.64% | 11.15% | - |
| `CSCC(=O)N1C[C@@H](C)[C@](O)(C(C)C)C1` | -3.517% | 19.2% | 13.22% |
| `CC(C)NC1CCc2c(ccc(=O)n2CCN2CCCC2=O)C1.O=C(O)C(F)(F)F` (stereo not given) | 0.6599% | - | -21.62% |
| `Cn1cnc(S(=O)(=O)N2CC3(CCN(c4ccccc4)C3)C2)c1` | - | 13.49% | - |
| `O=C(c1cccn1Cc1cccs1)N1CCSCC1` | -15.64% | -0.5682% | - |
| `O=C(NC1CC1)c1cc(NC(=O)N2CCCC(O)C2)ccc1Cl` (stereo not given) | 7.386% | 16.5% | 44.39% |
| `c1ccc2cc(OCCN3CCOC(Cn4cncn4)C3)ccc2c1` (stereo not given) | -19.78% | 9.722% | - |
| `COCCCn1nnc(C2(NC(=O)c3ccccc3)CCCC2)n1` | -20.42% | 17.6% | -19.76% |
| `CC(C)C(NC(=O)Cn1ccc(=O)n(C)c1=O)c1ccc(F)cc1` (stereo not given) | 8.639% | 10.1% | 0% |
| `COc1ccccc1Oc1ncccc1CNC(=O)C(O)C(F)(F)F` (stereo not given) | 2.081% | 16.85% | -18.37% |

Repeated from the top, 4 entries:

SMILES	Mtb heat-shock	LdMetRS	Mtb growth Cornell
O=C(CCC1CCCO1)NCCc1ccccn1 (stereo not given)	-1.77%	13.03%	23.14%
Cn1cc(CNc2cnn(CC3CCCO3)c2)c(-c2ccncc2)n1 (stereo not given)	-16.24%	6.425%	2.334%
Cc1nc(-c2noc3ccc(C(=O)NCCN4CCOCC4)cc23)co1	-6.663%	9.424%	5.677%
O=C1CC(c2ccc3ccccc3n2)c2c(n[nH]c2C2CCC2)N1 (stereo not given)	-9%	4.673%	-10.3%